Values of other authors in US10709666B2, “Carrier particles for dry powder formulations for inhalation” (CHIESI FARMACEUTICI S.P.A., priority 2017, dated 2020).
Some of these results come from one statement about several compounds together.

Conditions: heated at 50° C.

OC[C@@H](O)[C@@H](O)[C@H](O)[C@H](O)CO [mannitol]
concentration in water: 40-43 % w/v
